Some of the results follow. Further columns of the screen follow, without active or inactive calls. Compounds called inactive in the main read-out are mostly missing here. Potencies come from curve fits of mixed quality, noted in brackets.
Assay: qHTS Assay for Modulators of Lamin A Splicing
Details: HeLa LMNA splicing GFP/RFP minigene ratio, 48 h
In short: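 S3 HeLa stable clones carrying a lamin A-EGFP splicing minigene plus DsRed2 were seeded at 600 cells/well in Opti-MEM with 2% FBS, pin-dosed and incubated 48 h at 37°C. Acumen cytometry (488 nm) gave the GFP/RFP total-intensity ratio.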

[1] = measured here: GFP splicing reporter channel
[2] = measured here: RFP viability control channel

O=C(Nc1cccc(Cl)c1)c1cc(N=Nc2ccc([N+](=O)[O-])cc2Cl)ccc1O
AC50 [1]: 5.62 µM [rising, single point] | AC50 [2]: 3.98 µM [rising, full curve]

CCOc1cc(C(=O)N/N=C/C2CC=CCC2)cc(OCC)c1OCC (centres undefined)
AC50 [1]: 35.5 µM [rising, single point] | AC50 [2]: 20 µM [rising, single point]

CC(=O)C(=Cc1cc(C)n(-c2ccccc2)c1C)C(C)=O
AC50 [2]: 11.2 µM [rising, partial curve]

Cc1ccc(C2(C)NC(=O)N(CC(=O)NCc3cccs3)C2=O)cc1 (centres undefined)
AC50 [1]: 0.01 µM [falling, full curve, poor fit]

COc1ccc(CNc2nc(-c3ccoc3)nc3ccccc23)c(OC)c1
AC50 [1]: 15.8 µM [falling, partial curve]

CS(=O)(=O)Nc1cccc(-c2ccc3ncnc(NCc4cccs4)c3c2)c1
AC50 [1]: 20 µM [falling, partial curve] | AC50 [2]: 20 µM [falling, partial curve]

OC(COc1ccc2c(c1)OCO2)CN1CCN(c2ccc(F)cc2)CC1 (centres undefined)
AC50 [1]: 0.02 µM [falling, full curve, poor fit]

Cn1c2c(c(=O)n(C)c1=O)C(C(F)(F)F)(C(F)(F)F)N=C(CCC1CCCCC1)N2
AC50 [2]: 12.6 µM [rising, partial curve, poor fit]

O=C(N/N=C/c1cn(-c2ccccc2)nc1-c1cccs1)c1ccccc1F
AC50 [2]: 35.5 µM [rising, single point]

COc1ccccc1C(=O)NCC(=O)N/N=C/c1cc(Br)ccc1OCc1ccccc1
AC50 [2]: 11.2 µM [rising, partial curve]

Cc1cccn2c(=O)cc(COc3cccc(NC(=O)c4cccc(Cl)c4)c3)nc12
AC50 [1]: 1.26 µM [rising, full curve, poor fit] | AC50 [2]: 3.16 µM [rising, single point]

Cc1c(NC(=O)c2ccc(COc3ccc4ccccc4c3)o2)c(=O)n(-c2ccccc2)n1C
AC50 [1]: 10 µM [rising, partial curve] | AC50 [2]: 14.1 µM [rising, partial curve]

CCn1c(=O)n(CC)c2cc(N3CCCC3)c(NC(=O)Nc3cc(C)cc(C)c3)cc21
AC50 [1]: 20 µM [falling, single point] | AC50 [2]: 22.4 µM [falling, single point]

O=[N+]([O-])c1ccc(C2Oc3ccccc3C3CC(c4ccccc4)=NN32)s1 (centres undefined)
AC50 [2]: 0.891 µM [rising, partial curve]

CC(Nc1nc(N2CCCCC2)nc2ccccc12)c1ccccc1 (centres undefined)
AC50 [1]: 20 µM [rising, single point] | AC50 [2]: 22.4 µM [rising, single point]

O=C(COC(=O)c1ccc(O)cc1)Nc1ccccc1-c1ccccc1
AC50 [2]: 15.8 µM [rising, single point]

Cc1ccc2nc(C)c3c(c2c1)OC(C(C)(Cl)Br)C3 (centres undefined)
AC50 [1]: 14.1 µM [falling, partial curve, poor fit]

CN1C(=O)/C(=C\c2cc(N=Nc3ccccc3)ccc2O)SC1=S
AC50 [1]: 10 µM [falling, partial curve] | AC50 [2]: 11.2 µM [falling, partial curve]

CCCn1c(NC(=S)Nc2ccccc2)nc2ccccc21
AC50 [2]: 14.1 µM [rising, partial curve, poor fit]

O=[N+]([O-])c1c(NCCCO)cc(N2CCN(Cc3ccc4c(c3)OCO4)CC2)c2nonc12
AC50 [1]: 20 µM [rising, single point] | AC50 [2]: 35.5 µM [rising, single point]

CC(=O)c1ccc(NC(=O)COC(=O)CCC(=O)c2cccs2)cc1
AC50 [2]: 0.794 µM [rising, full curve]

COc1cccc2sc(Nc3nc4ccc(NC(C)=O)cc4s3)nc12
AC50 [1]: 6.31 µM [rising, partial curve] | AC50 [2]: 12.6 µM [rising, partial curve]

CCn1cc(C(=O)Nc2ccc(C)cc2C)c(=O)c2ccc(C)nc21
AC50 [1]: 5.62 µM [rising, partial curve, poor fit]

C[C@H](NC(=O)OC(C)(C)C)c1nnc(SCC(=O)c2ccc(Cl)cc2)o1
AC50 [1]: 14.1 µM [rising, single point] | AC50 [2]: 17.8 µM [rising, single point]

Cc1nc2c(C(=O)NCCc3ccc(Cl)cc3)cnn2c(C)c1Cc1ccc(F)cc1
AC50 [1]: 11.2 µM [falling, partial curve, poor fit] | AC50 [2]: 25.1 µM [falling, partial curve]

COc1ccccc1-c1c(C(F)(F)F)oc2cc(OS(C)(=O)=O)ccc2c1=O
AC50 [1]: 11.2 µM [rising, single point] | AC50 [2]: 11.2 µM [rising, partial curve]

Cc1nnc(NC(=O)Nc2cccc(Cl)c2)s1
AC50 [2]: 20 µM [rising, single point]

CC/C(=N\NC(=S)Nc1cc(C)ccc1C)c1ccc(OC(F)F)cc1
AC50 [2]: 20 µM [rising, partial curve]

O=C(NC(=S)Nc1c(Cl)ccc2nsnc12)c1ccco1
AC50 [1]: 0.0355 µM [rising, full curve, poor fit]

CC(=O)c1ccc(-n2nnnc2SCC(=O)N2CCc3ccccc3C2)cc1
AC50 [2]: 17.8 µM [rising, single point]

COc1cc2c(cc1OC)CN(c1nc(CN3CCOCC3)nc3sc4c(c13)CCCC4)CC2
AC50 [1]: 11.2 µM [falling, single point]

NNC(=O)COc1ccccc1[N+](=O)[O-]
AC50 [1]: 12.6 µM [falling, partial curve, poor fit]

Cc1cccc(NC(=O)Cn2c(=O)c3cccn3c3ccccc32)c1C
AC50 [2]: 22.4 µM [rising, partial curve, poor fit]

CCSc1nnc(NC(=O)C2Cc3ccccc3CN2S(=O)(=O)CC)s1 (centres undefined)
AC50 [2]: 35.5 µM [rising, single point]

COc1cc(NS(=O)(=O)c2cc(Br)cc3c2N(C(=O)C2CC2)CC3)cc(OC)c1
AC50 [1]: 7.94 µM [falling, partial curve] | AC50 [2]: 5.62 µM [falling, partial curve, poor fit]

— PubChem BioAssay AID1487 (National Center for Advancing Translational Sciences (NCATS), 2009)
